{
  "source": "paper PMC8740778",
  "about": "“Translational Pharmacokinetic–Pharmacodynamic Modeling of NaV1.7 Inhibitor MK-2075 to Inform Human Efficacious Dose” (Frontiers in Pharmacology, 2021)",
  "tested_on": "BALB/c male mice",
  "test": "Mouse tail flick latency",
  "type": "in vivo",
  "conditions": "sigmoidal Emax model of tail flick latency",
  "data": [
    {"smiles": "CN1CC[C@]23c4c5ccc(O)c4O[C@H]2[C@@H](O)C=C[C@H]3[C@H]1C5", "note": "[Morphine]", "values": [
      {"measurement": "Hill coefficient (h)", "value": "1.32 ± 0.33"}
    ]},
    {"smiles": "COc1cccc(C2(O)CCCCC2CN(C)C)c1", "note": "(centres unmarked) [Tramadol]", "values": [
      {"measurement": "Hill coefficient (h)", "value": "2.76 ± 0.58"}
    ]}
  ]
}
